Assay results: US20060111305A1, “Metabolites of certain [1,4]diazepino[6,7,1-ij]quinoline derivatives and methods of preparation and use thereof” (Wyeth, priority 2004, published 2006)
“And” between values parts separate entries of the source, which are not always exact repeats. Equal values may be shown once. The source gives many values for each of these; only a part stands here.

Assay: Concentrations of DCDQ and DCDQ carbamoyl glucuronide (M6) in human plasma, LC/SRM (Table 34)
Type: in vivo, healthy human subjects
Method: Drug administration and specimen collection were performed in a randomized, double-blinded, placebo-controlled, ascending single dose study of the safety, tolerability, pharmacokinetics, and pharmacodynamics of DCDQ administered orally to healthy subjects and subjects with schizophrenia and schizoaffective disorder. The specimens were stored at approximately −70° C. until analysis for metabolite profiles and for ratios of carbamoyl glucuronide (M6) to DCDQ.
Plasma samples from fasted subjects 25, 28 and 30 in the 50 mg single dose group, fasted subjects 50, 51, 54 in the 200 mg single dose group, fasted subjects 74, 76, 79 in the 300 mg single dose group, fed subjects 83, 84, 86 in the 300 mg single dose group and fasted subjects 92, 94, 96 in the 500 mg single dose group were analyzed for DCDQ carbamoyl glucuronide (M6) concentrations. The internal standard d8-DCDQ (25 μL of 200 ng/mL methanol solution) was added to 100 μL of the plasma samples, followed by the addition of 300 μL of acetonitrile. The samples were mixed and centrifuged at 14000 rpm in an Eppendorf 5415C centrifuge (Brinkman Instruments Inc., Westbury, N.Y.) for 10 minutes. The supernatant of each sample was transferred to a clean tube and evaporated to dryness under a stream of nitrogen in a TurboVap LV evaporator (Caliper Life Sciences, Hopkinton, Mass.). The residue was reconstituted with 50 μL of methanol followed by the addition of 150 μL of water. The sample was mixed and centrifuged as described above. The supernatant was analyzed by LC/MS/MS analysis. Samples for standard curves were prepared with control plasma spiked with synthetic M6. The concentrations of M6 used for the standard curve ranged from 0 to 2500 ng/mL plasma.
LC/MS System 3 was used for semi-quantitative analysis of metabolite M6 (DCDQ carbamoyl glucuronide) in plasma and urine samples. The HPLC equipment for this LC/MS System consisted of a Thermo Surveyor HPLC (Thermo Electron Corp., San Jose, Calif.), including a Surveyor MS pump and autosampler. Separations were accomplished on a 5 micron Phenomenex Luna C18(2) column, 150×2 mm (Phenomenex, Torrance, Calif.). The autosampler and column temperatures were set at 5° C. and 40° C., respectively. The HPLC mobile phase consisted of 10 mM ammonium acetate (A) and methanol (B), and was delivered at 0.2 mL/min. The linear mobile phase gradient (HPLC Gradient 2) is shown below. During LC/MS sample analysis, up to 3 min of the initial flow was diverted away from the mass spectrometer prior to evaluation of metabolites.
The mass spectrometer used for semi-quantitative anslysis with LC/MS System 3 was a Finnigan TSQ Quantum triple quadrupole mass spectrometer (Thermo Electron Corp.). The mass spectrometer was equipped with an electrospray interface and operated in the positive ionization mode. Settings for this mass spectrometer are listed below.
LC/MS/MS analysis in the selected reaction monitoring (SRM) mode (LC/SRM) was conducted for DCDQ and M6 using the following settings.
The computer program Microsoft Excel® 97 was used to calculate means and standard deviations and to perform the student t-test. Xcalibur (version 1.3) and MassLynx software (version 4.0) were used for collection and analysis of LC/MS data. Peak area ratios of M6 to the internal standard were used for quantitation of M6 in plasma samples.

[1] = 50 mg (fasted), 6 hr, individual subjects

Row | M6 to DCDQ Ratios [1] | M6 to DCDQ Ratios (300 mg (fed), 12 hr, Mean ± S.D.) | M6 to DCDQ Ratios (300 mg (fed), 12 hr, individual subjects) | M6 to DCDQ Ratios (300 mg (fed), 24 hr, Mean ± S.D.) | M6 to DCDQ Ratios (300 mg (fed), 24 hr, individual subjects) | M6 to DCDQ Ratios (500 mg (fasted), 6 hr, Mean ± S.D.) | M6 to DCDQ Ratios (500 mg (fasted), 6 hr, individual subjects) | M6 to DCDQ Ratios (500 mg (fasted), 12 hr, Mean ± S.D.) | M6 to DCDQ Ratios (500 mg (fasted), 12 hr, individual subjects) | M6 to DCDQ Ratios (500 mg (fasted), 24 hr, Mean ± S.D.) | M6 to DCDQ Ratios (500 mg (fasted), 24 hr, individual subjects) | Structure (SMILES) | DCDQ concentration in plasma [1]
1 | 55.4 | 40.3 ± 44.7 | 90.5 | 23.1 ± 27.1 | 9.46 and 5.57 and 54.3 | 35.4 ± 22.7 | 29.8 and 16.0 and 60.4 | 10.5 ± 5.92 | 5.96 and 8.34 and 17.2 | 10.7 ± 8.77 | 10.5 and 1.96 and 19.5 | O=C(O)[C@H]1O[C@@H](OC(=O)N2CCN3C[C@@H]4CCC[C@@H]4c4cccc(c43)C2)[C@H](O)[C@@H](O)[C@@H]1O [Metabolite M6, carbamoyl glucuronide of DCDQ] | –
2 | – | – | – | – | – | – | – | – | – | – | – | c1cc2c3c(c1)[C@H]1CCC[C@H]1CN3CCNC2 [DCDQ, (9aR,12aS)-4,5,6,7,9,9a,10,11,12,12a-decahydro-cyclopenta[c][1,4]diazepine[6,7,1-ij]quinoline, reference compound] | 1.5 ng/mL
